The list shows a part of the results. These are further read-outs of the screen, such as a control signal, another cell line or another target. No call is given for them. Most of these compounds were active or inconclusive in the main read-out, so they are no random draw. The note in brackets gives the kind of curve behind each potency; many fits are weak.
Assay: qHTS Assay for Lipid Storage Modulators in Drosophila S3 Cells;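 on cell number change: cells counted by Cell Tracker Red CMTPX staining in the red channel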
Settings: BODIPY lipid droplet fluorescence, 18-24 h; for cell number change: measured here: cell count max response, cells fed with added oleic acid
Method in brief: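 Drosophila S3 cells got compounds at several concentrations plus oleic acid (400 uM solution). Laser-scanning cytometry with 488 nm excitation read lipid droplets at 500-530 nm and cells at 575-640 nm. Percent activity was relative to 20 uM Triacsin C.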

[1] = measured here: lipid fluorescence (Fed channel) AC50, cells fed with added oleic acid
[2] = measured here: cell number channel AC50, cells fed with added oleic acid

In the case of `CC1(C)OC(C)(C)/C(=C/Nc2ccc(O)cc2)C1=O`, the cell number change is reported as -8.2% and the AC50 [1] is reported as 32.6 µM [falling, single point].
With `COc1ccc(N2C(=O)CSC2c2ccccc2F)c(OC)c1` (stereo not drawn) the cell number change was -14.1% and the AC50 [1] was 29.1 µM [falling, single point].
For `Cc1cc(C)c(NC(=O)c2c[nH]c(=S)n2-c2ccc(F)cc2)c(C)c1`, the cell number change was -6.43% and the AC50 [1] was 2.06 µM [falling, single point].
With `O=C1C=C(N(CCO)CCO)C2(CCCCC2)O1` the cell number change was -23.9%, the AC50 [2] was 1.64 µM [falling, full curve, poor fit] and the AC50 [1] was 3.66 µM [falling, full curve].
In the case of `O=C(CSc1nccn1Cc1ccco1)Nc1ccccc1F`, the cell number change is reported as 33.7%, the AC50 [2] is reported as 11.2 µM [rising, partial curve, poor fit] and the AC50 [1] is reported as 3.98 µM [rising, full curve, poor fit].
With `CC1(NC(=O)CC(c2ccccc2)(c2ccccc2)c2ccccc2)CCN(CCCc2ccccc2)C1=O` (stereo not drawn) the cell number change was -61.7% and the AC50 [2] was 29.1 µM [falling, single point].
For `CCOC(=O)c1c(CN2CCCCC2)n(C)c2ccc(OC)c(S(=O)(=O)c3ccccc3)c12`, the cell number change was -15.7%.
In the case of `CC(Nc1nc(N2CCCC2)nc2ccccc12)c1ccccc1` (stereo not drawn), the AC50 [2] is reported as 1.84 µM [rising, partial curve] and the AC50 [1] is reported as 0.411 µM [rising, full curve].
In the case of `Cc1ccc(C(=O)Nc2nnc(-c3ccco3)o2)cc1C`, the cell number change is reported as -11% and the AC50 [1] is reported as 10.3 µM [falling, partial curve].
With `O=c1cc(NC2CCCCC2)c2ccccc2o1` the cell number change was 12.9% and the AC50 [1] was 29.1 µM [rising, single point].
`CC(=O)n1nc(-c2ccccc2)nc1NCc1ccc(F)cc1` gave a cell number change of -13.2%.
With `Cc1cc([N+](=O)[O-])ccc1NC(=S)NC(=O)Cc1ccccc1` the cell number change was -6.62%.
With `FC(F)(F)c1ccc(-c2nc(=S)[nH][nH]2)cc1` the cell number change was -50% and the AC50 [2] was 0.164 µM [falling, full curve, poor fit].
In the case of `COc1ccc(S(=O)(=O)NCc2ccc3c(c2)OCO3)cc1C`, the cell number change is reported as 40.1%, the AC50 [2] is reported as 29.1 µM [rising, single point] and the AC50 [1] is reported as 29.1 µM [rising, single point].
`COc1cc2c(cc1NC(=O)CN(C)Cc1nc3ccccc3c(=O)[nH]1)oc1ccccc12` gave a cell number change of -19.9%.
For `CCOc1ccc(NC(=O)C2CCCN2S(=O)(=O)c2ccc(OCC)cc2)cc1` (stereo not drawn), the AC50 [1] was 0.731 µM [falling, full curve].
For `O=C(Nc1ccc(N2CCN(C(=O)c3cccs3)CC2)cc1)c1ccccc1Cl`, the cell number change was -4.5%.
With `O=[N+]([O-])c1cccc(COc2ncnc3cc([N+](=O)[O-])ccc23)c1` the cell number change was 12% and the AC50 [2] was 0.00461 µM [rising, full curve, poor fit].
With `CCCCOC(=O)Nc1nc(C)c(C(=O)OCC)s1` the AC50 [1] was 2.59 µM [rising, partial curve].
In the case of `CC(C)CCNC(=O)C1CCCN(S(=O)(=O)c2ccc3c(c2)CC(C)N3C(=O)C2CC2)C1` (stereo not drawn), the cell number change is reported as 13.1% and the AC50 [1] is reported as 29.1 µM [rising, single point].
Molecule `CCOC(=O)c1ccc(NC(=O)Nc2ncccc2C)cc1` has a cell number change of 18%.
With `Cc1cccn2c(CNCC3OCCc4ccccc43)c(C(=O)N3CCCCC3)nc12` (stereo not drawn) the cell number change was 31.3%, the AC50 [2] was 0.517 µM [rising, partial curve, poor fit] and the AC50 [1] was 18.4 µM [rising, partial curve, poor fit].
With `Cc1cc(C)cc(OCC(=O)N(Cc2ccco2)c2c(N)n(Cc3ccccc3)c(=O)[nH]c2=O)c1` the cell number change was -2.74% and the AC50 [1] was 0.00461 µM [rising, full curve, poor fit].
For `CC(C)NC(=S)NNC(=O)C12CC3CC(CC(C3)C1)C2`, the AC50 [2] was 0.184 µM [falling, full curve].
`CC(NC(=O)c1cc(-c2cccnc2)nc2ccc(Br)cc12)C1CCCO1` (stereo not drawn) showed a cell number change of -26.4%.
With `Cc1ccc(C)c(NC(=O)C2CC3c4ccccc4C2c2ccccc23)c1` (stereo not drawn) the AC50 [1] was 3.66 µM [falling, partial curve].
In the case of `Cc1ccccc1NC(=O)N1CCCC(c2nc(-c3ccc(C(C)C)cc3)no2)C1` (stereo not drawn), the cell number change is reported as -18.5%, the AC50 [2] is reported as 1.64 µM [rising, partial curve] and the AC50 [1] is reported as 2.06 µM [rising, partial curve].
With `Cc1cccc(-[n+]2c(-c3cccc(Br)c3)[nH]c3nc4ccccc4nc32)c1` the cell number change was 15.5%, the AC50 [2] was 4.61 µM [rising, partial curve] and the AC50 [1] was 5.17 µM [rising, single point].
In the case of `COc1ccc(N2CCn3c2nc2c3c(=O)n(CCc3ccccc3)c(=O)n2C)c(OC)c1`, the cell number change is reported as 3.96%, the AC50 [2] is reported as 0.00731 µM [rising, full curve] and the AC50 [1] is reported as 0.259 µM [rising, partial curve, poor fit].
`CCOC(=O)N1CCN(C(=O)c2cccc(S(=O)(=O)Nc3ccc(Br)cc3)c2)CC1` gave a cell number change of -25%.
For `Cc1ccccc1OCC(O)Cn1c(NCc2ccco2)nc2c1c(=O)n(C)c(=O)n2C` (stereo not drawn), the cell number change was -30.9%, the AC50 [2] was 16.4 µM [falling, partial curve, poor fit] and the AC50 [1] was 29.1 µM [falling, single point].

Reference: PubChem BioAssay AID2685 (National Center for Advancing Translational Sciences (NCATS), 2010)
